Results on one molecule are retold here after patent US20190194319A1.

Amino acid sequences for entries named in this document (tags omitted). A change or cut given only in a name is not applied to a line headed by its entry.
UniProt P50553: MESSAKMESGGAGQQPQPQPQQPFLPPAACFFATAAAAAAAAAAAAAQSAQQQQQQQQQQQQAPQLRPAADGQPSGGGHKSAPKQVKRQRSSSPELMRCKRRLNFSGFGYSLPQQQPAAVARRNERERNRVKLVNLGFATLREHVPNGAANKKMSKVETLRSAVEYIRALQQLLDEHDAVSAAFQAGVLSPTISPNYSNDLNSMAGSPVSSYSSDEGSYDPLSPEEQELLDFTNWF

No constants are given. Whether binding was seen depends on the method and setting. Some results given as binding are weak or reduced against the parent protein; the word gives no strength.

In the assay the target is human ASCL1 (Achaete-scute homolog 1) (human) (UniProt P50553). Briefly: screening of Example 2 (ELISA) or cells.

B1: SC72.165 (antibody, V domains shown)
VH: QVQLQQPGAELVRPGASVRLSCKASGYSFTSYWINWVKQRPGQGLEWIGNIYPGSSNTNYNEKFKRKATLTVDTSSSTAYMQLSSLTSDDSAVYYCARSESDYWGQGTTLTVSS
VL: DIVLTQSPASLAVSPGQRATISCKASQSVGYDGDTYLSWYQQKPGQPPKLLIYGVSILESGIPARFSGSGSGTDFTLNIHPVEEEDAATYYCQQSSEDPYTFGGGTKLEIK
Take B1: the binding entry is “binds”.
